Results are given in words; binding and its absence hold for the method and conditions named. Binding can be weak; no strength is given. Ends that are not written are not given here.
Target: HLA-B*07:02 (human)
Assay: UV-ligand exchange, b2m ELISA; grade of exchange yield

binding, binds:
SPNKGTLSV [… (SEQ ID No 32)], SPTFHLTL [SPTFHLTL (SEQ ID No 33)], LPRGPLASLL [… (SEQ ID No 34)], FPDNQRPAL [… (SEQ ID No 35)], APAAWLRSA [… (SEQ ID No 36)], RPLFQKSSM [… (SEQ ID No 37)], SPHPVTALLTL [… (SEQ ID No 38)], RPAPFEVVF [… (SEQ ID No 39)], KPGTSYRVTL [… (SEQ ID No 40)], RVRSRISNL [… (SEQ ID No 41)], SPASRSISL [… (SEQ ID No 118)], APLPRPGAVL [… (SEQ ID No 119)], RPAMNYDKL [… (SEQ ID No 120)], VPNQSSESL [… (SEQ ID No 121)], YPGFPQSQY [… (SEQ ID No 122)], KPSESIYSAL [… (SEQ ID No 123)], LPSDSHFKITF [… (SEQ ID No 124)], VPVYILLDEM [… (SEQ ID No 125)], KPGPEDKL [KPGPEDKL (SEQ ID No 126)], APRAGSQVV [… (SEQ ID No 127)], YPRTITPGM [… (SEQ ID No 128)], APRPASSL [APRPASSL (SEQ ID No 129)], FPRLVGPDF [… (SEQ ID No 130)], APTEDLKAL [… (SEQ ID No 131)], IPGPAQSTI [… (SEQ ID No 132)], MPNLPSTTSL [… (SEQ ID No 133)], RPIVPGPLL [… (SEQ ID No 134)], RVRSTISSL [… (SEQ ID No 135)], SPFSAEEANSL [… (SEQ ID No 136)], SPGATSRGTL [… (SEQ ID No 137)], SPMATTSTL [… (SEQ ID No 138)], SPQSMSNTL [… (SEQ ID No 139)], SPRTEASSAVL [… (SEQ ID No 140)], SPMTSLLTSGL [… (SEQ ID No 141)], TPGLRETSI [… (SEQ ID No 142)], SPAMTSTSF [… (SEQ ID No 143)], SPSPVSSTL [… (SEQ ID No 144)], SPSSPMSTF [… (SEQ ID No 145)], IPRPEVQAL [… (SEQ ID No 146)], APRWFPQPTVV [… (SEQ ID No 147)], KPYGGSGPL [… (SEQ ID No 148)], GPREALSRL [… (SEQ ID No 149)], VPDSGATATAY [… (SEQ ID No 293)], YPLRGSSIF [… (SEQ ID No 294)], YPLRGSSIFGL [… (SEQ ID No 295)], YPLRGSSI [YPLRGSSI (SEQ ID No 296)], TVREASGLL [… (SEQ ID No 297)], YPTEHVQF [YPTEHVQF (SEQ ID No 298)], HPGSSALHY [… (SEQ ID No 299)], IPMAAVKQAL [… (SEQ ID No 300)], SPRRSPRISF [… (SEQ ID No 301)], RVEEVRALL [… (SEQ ID No 302)], LPMWKVTAF [… (SEQ ID No 303)], LPRPGAVL [LPRPGAVL (SEQ ID No 304)], TPWAESSTKF [… (SEQ ID No 305)]

— patent US20230312680A1
